From PMC9687583
These are yes or no findings as the source states them, for the method shown. Some results given as binding are weak or reduced against the parent protein; the word gives no strength.

Target: T1, Human C-C motif ligand 16 (CCL16) (human), O15467
T1 chain: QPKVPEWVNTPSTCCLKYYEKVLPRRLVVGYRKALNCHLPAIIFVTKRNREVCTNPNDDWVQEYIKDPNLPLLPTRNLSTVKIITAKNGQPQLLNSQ
Test: crystal structure; sitting drop, 293 K, 1.6 M sodium citrate pH 6.5; space group C2, two chains per asymmetric unit; 1.45 Å; both purified
Conditions: remark: other sources report otherwise

binding: binds
B1: Human C-C motif ligand 16 (CCL16), O15467 24-120 (natural protein)
chain: T1 chain
modifications: here or on the partner: two intramolecular disulphide bonds (confirmed by CE-MS and electron density); two intramolecular disulphide bonds (confirmed by CE-MS and electron density)
